Measured values: article PMC11271578
No constants are given. Whether binding was seen depends on the method and setting. Binding seen in cells or lysates may run through a third protein. Some results given as binding are weak or reduced against the parent protein; the word gives no strength.

By UniProt entry, the sequences of proteins in these tests, tags left out.
UniProt Q8NFA0: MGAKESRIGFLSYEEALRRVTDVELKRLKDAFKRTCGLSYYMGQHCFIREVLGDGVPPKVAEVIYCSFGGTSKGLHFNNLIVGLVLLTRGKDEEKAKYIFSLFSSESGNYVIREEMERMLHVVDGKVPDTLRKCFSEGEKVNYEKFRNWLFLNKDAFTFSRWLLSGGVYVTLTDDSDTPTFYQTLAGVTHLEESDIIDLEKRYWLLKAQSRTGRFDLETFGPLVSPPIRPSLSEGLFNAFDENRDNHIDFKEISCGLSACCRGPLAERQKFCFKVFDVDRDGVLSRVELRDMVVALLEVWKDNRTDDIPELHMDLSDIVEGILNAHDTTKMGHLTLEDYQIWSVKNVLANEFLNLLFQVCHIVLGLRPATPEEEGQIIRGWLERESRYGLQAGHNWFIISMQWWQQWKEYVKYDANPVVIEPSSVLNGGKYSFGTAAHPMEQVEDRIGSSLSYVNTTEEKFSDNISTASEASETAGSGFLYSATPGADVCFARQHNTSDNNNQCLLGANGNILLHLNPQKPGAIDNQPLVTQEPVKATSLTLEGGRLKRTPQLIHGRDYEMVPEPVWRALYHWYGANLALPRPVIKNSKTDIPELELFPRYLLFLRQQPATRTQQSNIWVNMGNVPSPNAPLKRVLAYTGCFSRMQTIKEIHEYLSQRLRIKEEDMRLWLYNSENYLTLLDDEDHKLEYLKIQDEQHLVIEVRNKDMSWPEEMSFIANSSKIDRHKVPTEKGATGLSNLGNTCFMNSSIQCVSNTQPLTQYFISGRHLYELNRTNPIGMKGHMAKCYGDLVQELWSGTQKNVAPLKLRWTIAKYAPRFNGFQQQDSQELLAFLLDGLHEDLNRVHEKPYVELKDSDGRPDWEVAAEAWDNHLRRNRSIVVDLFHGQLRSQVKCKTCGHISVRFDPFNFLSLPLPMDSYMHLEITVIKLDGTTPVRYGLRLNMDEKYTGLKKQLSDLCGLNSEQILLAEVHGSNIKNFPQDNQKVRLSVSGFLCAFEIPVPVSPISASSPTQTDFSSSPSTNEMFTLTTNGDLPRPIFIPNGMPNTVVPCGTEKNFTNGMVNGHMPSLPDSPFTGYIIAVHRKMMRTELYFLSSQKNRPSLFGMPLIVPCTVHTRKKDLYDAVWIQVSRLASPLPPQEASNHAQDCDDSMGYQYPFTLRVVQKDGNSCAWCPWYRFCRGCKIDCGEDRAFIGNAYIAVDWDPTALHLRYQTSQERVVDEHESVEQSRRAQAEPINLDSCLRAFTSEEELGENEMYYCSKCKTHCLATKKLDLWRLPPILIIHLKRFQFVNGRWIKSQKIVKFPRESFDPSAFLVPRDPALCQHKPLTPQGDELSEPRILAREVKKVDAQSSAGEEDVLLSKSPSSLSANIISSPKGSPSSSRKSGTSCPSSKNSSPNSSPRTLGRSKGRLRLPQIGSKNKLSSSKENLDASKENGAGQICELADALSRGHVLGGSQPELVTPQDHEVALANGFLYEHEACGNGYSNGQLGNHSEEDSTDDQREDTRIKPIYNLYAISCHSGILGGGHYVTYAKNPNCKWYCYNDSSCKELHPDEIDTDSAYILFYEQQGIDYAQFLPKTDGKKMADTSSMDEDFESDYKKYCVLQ
UniProt O95817: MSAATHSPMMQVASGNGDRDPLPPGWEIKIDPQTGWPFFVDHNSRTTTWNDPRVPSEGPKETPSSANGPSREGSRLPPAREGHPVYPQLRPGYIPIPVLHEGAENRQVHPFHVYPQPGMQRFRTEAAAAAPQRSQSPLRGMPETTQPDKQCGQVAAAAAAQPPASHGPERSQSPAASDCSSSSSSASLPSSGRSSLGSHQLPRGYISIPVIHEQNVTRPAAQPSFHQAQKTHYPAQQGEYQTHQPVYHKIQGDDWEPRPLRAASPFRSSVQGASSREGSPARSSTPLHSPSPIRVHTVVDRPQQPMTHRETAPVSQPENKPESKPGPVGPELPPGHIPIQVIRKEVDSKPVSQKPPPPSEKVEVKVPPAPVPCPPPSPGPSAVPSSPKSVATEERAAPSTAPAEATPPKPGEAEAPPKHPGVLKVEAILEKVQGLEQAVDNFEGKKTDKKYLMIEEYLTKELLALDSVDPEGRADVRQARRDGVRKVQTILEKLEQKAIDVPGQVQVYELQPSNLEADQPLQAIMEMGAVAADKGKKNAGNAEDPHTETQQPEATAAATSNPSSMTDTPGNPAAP

Biological target: Myc-tagged USP32 (ubiquitin-specific peptidase 32) (human) (UniProt Q8NFA0)
Experiment: co-IP; HEK293T cells cotransfected with Myc-USP32 and/or Flag-BAG3; weak RIPA lysate; immunoprecipitated with anti-Myc or anti-Flag antibody and protein A/G agarose, 4 °C overnight; immunoblot with anti-Flag or anti-Myc

Substance: Flag-tagged BAG3 (Bcl2-associated athanogene 3) (from UniProt O95817 1-575)
- binding: binds
